Laboratory results as given in paper PMC5864832.
No constants are given. Whether binding was seen depends on the method and setting. Binding seen in cells or lysates may run through a third protein. These calls come from enrichment with a bait or labelling near it, and not all partners need be listed.

By UniProt entry, the sequences of proteins in these tests, tags left out.
UniProt P25786: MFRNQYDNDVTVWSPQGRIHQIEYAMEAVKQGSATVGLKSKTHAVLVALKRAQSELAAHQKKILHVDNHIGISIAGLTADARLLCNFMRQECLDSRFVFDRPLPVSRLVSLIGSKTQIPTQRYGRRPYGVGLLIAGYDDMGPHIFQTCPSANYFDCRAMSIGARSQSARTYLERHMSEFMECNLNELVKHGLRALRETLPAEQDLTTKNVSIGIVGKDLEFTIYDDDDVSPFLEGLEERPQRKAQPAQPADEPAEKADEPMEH
UniProt P50613: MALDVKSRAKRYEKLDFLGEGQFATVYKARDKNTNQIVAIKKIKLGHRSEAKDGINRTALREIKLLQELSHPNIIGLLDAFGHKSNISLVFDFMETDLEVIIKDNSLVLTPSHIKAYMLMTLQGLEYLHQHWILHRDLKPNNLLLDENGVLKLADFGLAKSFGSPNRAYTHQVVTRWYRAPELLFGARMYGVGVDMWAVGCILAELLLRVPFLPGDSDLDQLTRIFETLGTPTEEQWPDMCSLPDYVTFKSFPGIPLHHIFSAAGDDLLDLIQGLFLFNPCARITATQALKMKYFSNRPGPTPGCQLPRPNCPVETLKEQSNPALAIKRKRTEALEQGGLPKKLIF

B1: MYO1D (protein, UniProt O94832 1-1006)
chain: MAEQESLEFGKADFVLMDTVSMPEFMANLRLRFEKGRIYTFIGEVVVSVNPYKLLNIYGRDTIEQYKGRELYERPPHLFAIADAAYKAMKRRSKDTCIVISGESGAGKTEASKYIMQYIAAITNPSQRAEVERVKNMLLKSNCVLEAFGNAKTNRNDNSSRFGKYMDINFDFKGDPIGGHINNYLLEKSRVIVQQPGERSFHSFYQLLQGGSEQMLRSLHLQKSLSSYNYIHVGAQLKSSINDAAEFRVVADAMKVIGFKPEEIQTVYKILAAILHLGNLKFVVDGDTPLIENGKVVSIIAELLSTKTDMVEKALLYRTVATGRDIIDKQHTEQEASYGRDAFAKAIYERLFCWIVTRINDIIEVKNYDTTIHGKNTVIGVLDIYGFEIFDNNSFEQFCINYCNEKLQQLFIQLVLKQEQEEYQREGIPWKHIDYFNNQIIVDLVEQQHKGIIAILDDACMNVGKVTDEMFLEALNSKLGKHAHFSSRKLCASDKILEFDRDFRIRHYAGDVVYSVIGFIDKNKDTLFQDFKRLMYNSSNPVLKNMWPEGKLSITEVTKRPLTAATLFKNSMIALVDNLASKEPYYVRCIKPNDKKSPQIFDDERCRHQVEYLGLLENVRVRRAGFAFRQTYEKFLHRYKMISEFTWPNHDLPSDKEAVKKLIERCGFQDDVAYGKTKIFIRTPRTLFTLEELRAQMLIRIVLFLQKVWRGTLARMRYKRTKAALTIIRYYRRYKVKSYIHEVARRFHGVKTMRDYGKHVKWPSPPKVLRRFEEALQTIFNRWRASQLIKSIPASDLPQVRAKVAAVEMLKGQRADLGLQRAWEGNYLASKPDTPQTSGTFVPVANELKRKDKYMNVLFSCHVRKVNRFSKVEDRAIFVTDRHLYKMDPTKQYKVMKTIPLYNLTGLSVSNGKDQLVVFHTKDNKDLIVCLFSKQPTHESRIGELVGVLVNHFKSEKRHLQVNVTNPVQCSLHGKKCTVSVETRLNQPQPDFTKNRSGFILSVPGN
B2: ERCC5 (protein, UniProt P28715 1-1186)
chain: MGVQGLWKLLECSGRQVSPEALEGKILAVDISIWLNQALKGVRDRHGNSIENPHLLTLFHRLCKLLFFRIRPIFVFDGDAPLLKKQTLVKRRQRKDLASSDSRKTTEKLLKTFLKRQAIKTAFRSKRDEALPSLTQVRRENDLYVLPPLQEEEKHSSEEEDEKEWQERMNQKQALQEEFFHNPQAIDIESEDFSSLPPEVKHEILTDMKEFTKRRRTLFEAMPEESDDFSQYQLKGLLKKNYLNQHIEHVQKEMNQQHSGHIRRQYEDEGGFLKEVESRRVVSEDTSHYILIKGIQAKTVAEVDSESLPSSSKMHGMSFDVKSSPCEKLKTEKEPDATPPSPRTLLAMQAALLGSSSEEELESENRRQARGRNAPAAVDEGSISPRTLSAIKRALDDDEDVKVCAGDDVQTGGPGAEEMRINSSTENSDEGLKVRDGKGIPFTATLASSSVNSAEEHVASTNEGREPTDSVPKEQMSLVHVGTEAFPISDESMIKDRKDRLPLESAVVRHSDAPGLPNGRELTPASPTCTNSVSKNETHAEVLEQQNELCPYESKFDSSLLSSDDETKCKPNSASEVIGPVSLQETSSIVSVPSEAVDNVENVVSFNAKEHENFLETIQEQQTTESAGQDLISIPKAVEPMEIDSEESESDGSFIEVQSVISDEELQAEFPETSKPPSEQGEEELVGTREGEAPAESESLLRDNSERDDVDGEPQEAEKDAEDSLHEWQDINLEELETLESNLLAQQNSLKAQKQQQERIAATVTGQMFLESQELLRLFGIPYIQAPMEAEAQCAILDLTDQTSGTITDDSDIWLFGARHVYRNFFNKNKFVEYYQYVDFHNQLGLDRNKLINLAYLLGSDYTEGIPTVGCVTAMEILNEFPGHGLEPLLKFSEWWHEAQKNPKIRPNPHDTKVKKKLRTLQLTPGFPNPAVAEAYLKPVVDDSKGSFLWGKPDLDKIREFCQRYFGWNRTKTDESLFPVLKQLDAQQTQLRIDSFFRLAQQEKEDAKRIKSQRLNRAVTCMLRKEKEAAASEIEAVSVAMEKEFELLDKAKGKTQKRGITNTLEESSSLKRKRLSDSKGKNTCGGFLGETCLSESSDGSSSEDAESSSLMNVQRRTAAKEPKTSASDSQNSVKEAPVKNGGATTSSSSDSDDDGGKEKMVLVTARSVFGKKRRKLRRARGRKRKT

Key:
[1] = molecular target: Proteasome subunit alpha type-1 (human) (UniProt P25786); experiment: proximity labelling; BioID: MAC-tagged bait in stable Flp-In T-REx 293 cells, tetracycline and 50 uM biotin 24 h; lysis buffer 2 (as buffer 1 with 0.1% SDS), sonication, benzonase; biotinylated proteins on Strep-Tactin beads; LC-MS; SAINT and CRAPome filter
[2] = molecular target: cyclin-dependent kinase (CDK) 7 (human) (UniProt P50613); experiment: affinity purification with mass spectrometry + proximity labelling; bait-normalised prey PSM values of AP-MS and of BioID of the same MAC-tagged bait integrated to a relative distance between bait and prey

Binder	binding [1]	binding [2]
B1	binds	–
B2	–	binds
